Measurements as given in PubChem BioAssay AID330 (DTP/NCI, 2004).
The list does not hold the whole screen: it covers a few groups of compounds. Not every dose and run of a compound is shown. T/C: endpoint of the treated group in % of that of the vehicle group. For survival time, the PubChem record calls one and a half times the control and up active, and a quarter to a half above the control has no call in these data; cut-offs in other NCI protocols can differ. Some T/C values are marked as having no survivor count here; that says nothing about deaths at the dose. Schedule codes are those of the source, taken here to give the interval after Q, in days (D) or hours (H), and the number of doses after X. Some entries hold several experiments; the results are listed from low to high.

Tested on: P388 leukemia ip, CD2F1 mice, survival T/C
Test: NCI In Vivo Anticancer Drug Screen. Data for tumor model P388 Leukemia (intraperitoneal) in CD2F1 (CDF1) mice
Conditions: T/C endpoint: median survival time, higher T/C = longer survival
[1] = dose: 5.0 mg/kg/injection, schedule: Q01DX009 (ip), vehicle: saline
[2] = dose: 10.0 mg/kg/injection, schedule: Q01DX009 (ip), vehicle: saline
[3] = dose: 2.0 mg/kg/injection, schedule: Q01DX009 (ip), vehicle: saline
[4] = dose: 3.0 mg/kg/injection, schedule: Q01DX009 (ip), vehicle: saline

## Cc1ccc2nc(CN(CCCl)CCCl)[nH]c2c1
dose: 4.12 mg/kg/injection, schedule: Q01DX009 (ip), vehicle: saline sonified
  T/C: 136 % of control [survivor count not shown]
dose: 4.4 mg/kg/injection, schedule: Q01DX009 (ip), vehicle: saline
  T/C: 145 % of control [survivor count not shown]
[1]
  T/C: 136 % of control [survivor count not shown]
dose: 6.25 mg/kg/injection, schedule: Q01DX009 (ip), vehicle: saline sonified
  T/C: 145 [survivor count not shown] and 172 % of control [survivor count not shown]
dose: 6.6 mg/kg/injection, schedule: Q01DX009 (ip), vehicle: saline
  T/C: 135 % of control [survivor count not shown]
dose: 8.3 mg/kg/injection, schedule: Q04DX003 (ip), vehicle: saline
  T/C: 95 % of control [survivor count not shown]
dose: 9.4 mg/kg/injection, schedule: Q01DX009 (ip), vehicle: saline sonified
  T/C: 168 % of control [survivor count not shown]
[2]
  T/C: 170 [survivor count not shown] and 172 % of control [survivor count not shown]
dose: 11.0 mg/kg/injection, schedule: Q01DX001 (ip), vehicle: saline
  T/C: 136 % of control [survivor count not shown]
dose: 12.5 mg/kg/injection, schedule: Q01DX009 (ip), vehicle: saline sonified
  T/C: 127 % of control [survivor count not shown]
dose: 12.5 mg/kg/injection, schedule: Q04DX003 (ip), vehicle: saline
  T/C: 104 % of control [survivor count not shown]
dose: 15.0 mg/kg/injection, schedule: Q01DX009 (ip), vehicle: saline
  T/C: 130 % of control [survivor count not shown]
dose: 16.5 mg/kg/injection, schedule: Q01DX001 (ip), vehicle: saline
  T/C: 136 % of control [survivor count not shown]
dose: 18.75 mg/kg/injection, schedule: Q04DX003 (ip), vehicle: saline
  T/C: 116 % of control [survivor count not shown]
dose: 20.0 mg/kg/injection, schedule: Q01DX009 (ip), vehicle: saline
  T/C: 190 % of control [survivor count not shown]
dose: 25.0 mg/kg/injection, schedule: Q01DX001 (ip), vehicle: saline
  T/C: 136 % of control [survivor count not shown]
dose: 25.0 mg/kg/injection, schedule: Q04DX003 (ip), vehicle: saline with Tween-80
  T/C: 100 % of control [survivor count not shown]

## BrCCN(CCBr)CCCN(CCBr)CCBr
dose: 0.1 mg/kg/injection, schedule: Q01DX009 (ip), vehicle: saline
  T/C: 90 % of control [survivor count not shown]
dose: 13.0 micrograms/kg/injection, schedule: Q01DX009 (ip), vehicle: saline
  T/C: 191 % of control [survivor count not shown]
dose: 25.0 micrograms/kg/injection, schedule: Q01DX009 (ip), vehicle: saline
  T/C: 178 % of control [survivor count not shown]
dose: 50.0 micrograms/kg/injection, schedule: Q01DX009 (ip), vehicle: saline
  T/C: 143 % of control [survivor count not shown]
dose: 125.0 micrograms/kg/injection, schedule: Q04DX003 (ip), vehicle: saline with Tween-80
  T/C: 177 % of control [survivor count not shown]
dose: 165.0 micrograms/kg/injection, schedule: Q04DX003 (ip), vehicle: saline
  T/C: 150 % of control [survivor count not shown]
dose: 250.0 micrograms/kg/injection, schedule: Q04DX003 (ip), vehicle: saline with Tween-80
  T/C: 209 % of control [survivor count not shown]
dose: 250.0 micrograms/kg/injection, schedule: Q04DX003 (ip), vehicle: saline
  T/C: 145 % of control [survivor count not shown]
dose: 375.0 micrograms/kg/injection, schedule: Q04DX003 (ip), vehicle: saline
  T/C: 172 % of control [survivor count not shown]
dose: 500.0 micrograms/kg/injection, schedule: Q04DX003 (ip), vehicle: saline with Tween-80
  T/C: 90 % of control [survivor count not shown]
dose: 1000.0 micrograms/kg/injection, schedule: Q01DX009 (ip), vehicle: saline
  T/C: 127 % of control [survivor count not shown]
dose: 2000.0 micrograms/kg/injection, schedule: Q01DX009 (ip), vehicle: saline
  T/C: 145 % of control [survivor count not shown]
dose: 4000.0 micrograms/kg/injection, schedule: Q01DX009 (ip), vehicle: saline
  T/C: 148 % of control [survivor count not shown]
dose: 8000.0 micrograms/kg/injection, schedule: Q01DX009 (ip), vehicle: saline
  T/C: 120 % of control [survivor count not shown]

## Cc1cccc(CN(CCCl)CCCl)c1
dose: 1.25 mg/kg/injection, schedule: Q01DX009 (ip), vehicle: saline
  T/C: 137 % of control [survivor count not shown]
dose: 2.5 mg/kg/injection, schedule: Q01DX009 (ip), vehicle: saline
  T/C: 155 % of control [survivor count not shown]
[1]
  T/C: 163 % of control [survivor count not shown]
[2]
  T/C: 91 % of control [survivor count not shown]

## N#CC(C#N)=Cc1ccc(N(CCCl)CCCl)cc1
dose: 100.0 mg/kg/injection, schedule: Q01DX009 (ip), vehicle: saline with Tween-80
  T/C: 145 % of control [survivor count not shown]
dose: 200.0 mg/kg/injection, schedule: Q01DX009 (ip), vehicle: saline with Tween-80
  T/C: 165 % of control [survivor count not shown]
dose: 264.0 mg/kg/injection, schedule: Q04DX003 (ip), vehicle: saline with Tween-80
  T/C: 104 % of control [survivor count not shown]
dose: 400.0 mg/kg/injection, schedule: Q01DX009 (ip), vehicle: saline with Tween-80
  T/C: 150 % of control [survivor count not shown]
dose: 400.0 mg/kg/injection, schedule: Q04DX003 (ip), vehicle: saline with Tween-80
  T/C: 113 % of control [survivor count not shown]
dose: 600.0 mg/kg/injection, schedule: Q04DX003 (ip), vehicle: saline with Tween-80
  T/C: 177 % of control [survivor count not shown]

## CCC(=O)N(c1ccccc1)C1CCNCC1
dose: 50.0 mg/kg/injection, schedule: Q01DX009 (ip), vehicle: saline
  T/C: 99 % of control [survivor count not shown]
dose: 100.0 mg/kg/injection, schedule: Q01DX009 (ip), vehicle: saline
  T/C: 99 % of control [survivor count not shown]

## Cc1ccc(CN(CCCl)CCCl)cc1C
dose: 1.32 mg/kg/injection, schedule: Q01DX009 (ip), vehicle: saline
  T/C: 133 % of control [survivor count not shown]
[3]
  T/C: 140 % of control [survivor count not shown]
[4]
  T/C: 177 % of control [survivor count not shown]
dose: 4.4 mg/kg/injection, schedule: Q04DX003 (ip), vehicle: saline
  T/C: 145 % of control [survivor count not shown]
dose: 4.5 mg/kg/injection, schedule: Q01DX009 (ip), vehicle: saline
  T/C: 166 % of control [survivor count not shown]
dose: 10.0 mg/kg/injection, schedule: Q04DX003 (ip), vehicle: saline
  T/C: 155 % of control [survivor count not shown]
dose: 15.0 mg/kg/injection, schedule: Q04DX003 (ip), vehicle: saline
  T/C: 165 % of control [survivor count not shown]

## COC(=O)CCc1ccc(CN(CCCl)CCCl)cc1
dose: 0.37 mg/kg/injection, schedule: Q01DX009 (ip), vehicle: saline
  T/C: 116 % of control [survivor count not shown]
dose: 0.75 mg/kg/injection, schedule: Q01DX009 (ip), vehicle: saline
  T/C: 127 % of control [survivor count not shown]
dose: 1.0 mg/kg/injection, schedule: Q01DX009 (ip), vehicle: saline
  T/C: 150 % of control [survivor count not shown]
dose: 1.0 mg/kg/injection, schedule: Q04DX003 (ip), vehicle: saline
  T/C: 130 % of control [survivor count not shown]
dose: 1.5 mg/kg/injection, schedule: Q01DX009 (ip), vehicle: saline
  T/C: 150 % of control [survivor count not shown]
[3]
  T/C: 181 % of control [survivor count not shown]
dose: 2.0 mg/kg/injection, schedule: Q04DX003 (ip), vehicle: saline
  T/C: 155 % of control [survivor count not shown]
[4]
  T/C: 178 % of control [survivor count not shown]
dose: 4.0 mg/kg/injection, schedule: Q04DX003 (ip), vehicle: saline
  T/C: 180 % of control [survivor count not shown]
dose: 6.0 mg/kg/injection, schedule: Q01DX009 (ip), vehicle: saline
  T/C: 91 % of control [survivor count not shown]
